PubChem BioAssay AID1259254, NCATS | 2017
Screen: 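Genome-wide screen for genes that prevent DNA re-replication in cancer cells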 (primary screen). System: human HCT116 colorectal cancer cells. Reagents: single siRNA against human genes. Duration: 3 days. Measurement: 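Imaged Hoechst DNA stain sorts each cell into a cycle phase by DNA amount; per plate, G2 fraction set to 0% for non-targeting and 100% for GMNN siRNA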. Reading the numbers: G2 robust z-score and G2 cells, % of GMNN control: higher = more G2 cells, more excess DNA replication; raw share of cells in G2: higher = larger share of cells with G2 DNA content. Rule for the call: 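An siRNA counts as active if its G2 robust z-score lies at least 5 MADs above the screen median; here such calls match roughly 38% of GMNN control or more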.
The deposit covers about 59,000 reagents; shown is a part drawn at random. In the full data, about 1,550 (2.6%) were called active. 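G2 share is only a proxy for re-replication; each gene was hit by three separate siRNAs, and active genes were retested.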 Raw values vary from plate to plate and are shown uncorrected. The numbers tell different reagents against one gene apart. Not stated in the record: the amount of reagent.

| target gene | reagent | G2 robust z-score | G2 cells, % of GMNN control | raw share of cells in G2 (%) | outcome |
| --- | --- | --- | --- | --- | --- |
| KRT77 | 1 | 3.26 | 25.9 | 13.7 | inactive |
| KRT77 | 2 | -1.12 | -4.94 | 3.77 | inactive |
| KRT77 | 3 | -0.102 | 2.25 | 5.84 | inactive |
| AKR7L | 1 | -0.283 | 0.977 | 6.42 | inactive |
| AKR7L | 2 | -0.914 | -3.47 | 3.43 | inactive |
| AKR7L | 3 | 0.137 | 3.93 | 6.35 | inactive |
| SOCS5 | 1 | -0.318 | 0.729 | 5.48 | inactive |
| SOCS5 | 2 | -0.371 | 0.357 | 4.9 | inactive |
| SOCS5 | 3 | -0.0985 | 2.27 | 3.98 | inactive |
| OR4C13 | 1 | 1.41 | 12.9 | 8.33 | inactive |
| OR4C13 | 2 | 0.478 | 6.33 | 5.49 | inactive |
| OR4C13 | 3 | -0.22 | 1.42 | 3.7 | inactive |
| ZFP3 | 1 | -0.828 | -2.86 | 2.11 | inactive |
| ZFP3 | 2 | 4.24 | 32.8 | 14.5 | inactive |
| ZFP3 | 3 | 2.23 | 18.7 | 10.1 | inactive |
| TOMM5 | 1 | 3.05 | 24.4 | 12.7 | inactive |
| TOMM5 | 2 | -0.661 | -1.68 | 2.85 | inactive |
| TOMM5 | 3 | 0.191 | 4.31 | 6.58 | inactive |
| SCGB1D2 | 1 | 4.65 | 35.7 | 18.9 | inactive |
| SCGB1D2 | 2 | 0.254 | 4.75 | 4.95 | inactive |
| SCGB1D2 | 3 | 1.69 | 14.9 | 10.8 | inactive |
| HVCN1 | 1 | 0.4 | 5.78 | 6.03 | inactive |
| HVCN1 | 2 | 0.201 | 4.38 | 4.76 | inactive |
| HVCN1 | 3 | -0.705 | -1.99 | 1.8 | inactive |
| SOSTDC1 | 1 | 2.83 | 22.9 | 13 | inactive |
| SOSTDC1 | 2 | -0.316 | 0.742 | 4.26 | inactive |
| SOSTDC1 | 3 | -1.04 | -4.36 | 1.77 | inactive |
| TCIM | 1 | 1.73 | 15.1 | 10.3 | inactive |
| TCIM | 2 | 0.425 | 5.95 | 7.3 | inactive |
| TCIM | 3 | -0.454 | -0.224 | 2.96 | inactive |
| METTL3 | 1 | -0.673 | -1.77 | 3.81 | inactive |
| METTL3 | 2 | -0.607 | -1.31 | 3.79 | inactive |
| METTL3 | 3 | 2.91 | 23.4 | 16.7 | inactive |
| TEKT4P2 | 1 | 0.766 | 8.36 | 8.22 | inactive |
| TEKT4P2 | 2 | 1.83 | 15.8 | 9.2 | inactive |
| TEKT4P2 | 3 | 2.78 | 22.5 | 13.2 | inactive |
| PM20D1 | 1 | -0.226 | 1.38 | 3.55 | inactive |
| PM20D1 | 2 | -0.428 | -0.0471 | 3.81 | inactive |
| PM20D1 | 3 | 0.982 | 9.88 | 5.96 | inactive |
| FEM1B | 1 | -0.0711 | 2.47 | 6.45 | inactive |
| FEM1B | 2 | 0.587 | 7.1 | 6.91 | inactive |
| FEM1B | 3 | 0.252 | 4.74 | 5.13 | inactive |
| PRSS37 | 1 | 0.689 | 7.81 | 7.12 | inactive |
| PRSS37 | 2 | -0.238 | 1.29 | 3.51 | inactive |
| PRSS37 | 3 | -0.441 | -0.135 | 2.53 | inactive |
| TMCO1 | 1 | -0.73 | -2.17 | 2.83 | inactive |
| TMCO1 | 2 | -0.979 | -3.92 | 2.62 | inactive |
| TMCO1 | 3 | 0.525 | 6.66 | 5.39 | inactive |
